# The list shows a part of the results. These are further read-outs of the screen, such as a control signal, another cell line or another target. No call is given for them. Most of these compounds were active or inconclusive in the main read-out, so they are no random draw. Potencies come from curve fits of mixed quality, noted in brackets.
# Test: qHTS Assay for Modulators of Lamin A Splicing
# Conditions: HeLa LMNA splicing GFP/RFP minigene ratio, 48 h
# Procedure, shortened: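 S3 HeLa cells stably expressing lamin A-EGFP splicing minigene plus DsRed2, 600 cells/well, 48 h compound exposure at 37C. Laser-scanning cytometry; analysed as GFP (500-530 nm)/RFP (575-640 nm) total intensity ratio; 0.5% DMSO vehicle.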
# [1] = measured here: GFP splicing reporter channel
# [2] = measured here: RFP viability control channel
Structure (SMILES),AC50 [1],AC50 [2]
CCOC(=O)c1cc(C(=O)OCC)c2cc(Br)ccc2n1,"0.158 µM [rising, full curve, poor fit]",–
CCOC(=O)N/N=C/c1cccc(Cl)c1Cl,"3.16 µM [rising, single point]","2.24 µM [rising, single point]"
CCCCCCCCCCCCCCCC(=O)NCC(COP(=O)([O-])OCC[N+](C)(C)C)OCC (stereo not given),"5.62 µM [falling, full curve]","3.98 µM [falling, full curve]"
CS(=O)(=O)N1N=C(c2ccccc2)CC1c1ccc2c(c1)OCO2 (stereo not given),–,"20 µM [rising, single point]"
Cc1ccccc1-n1c(SCC(=O)N/N=C/c2sccc2C)nc2ccccc2c1=O,"1.58 µM [rising, full curve, poor fit]",–
Cc1ccc(N(CC(=O)NCCc2ccc(F)cc2)S(=O)(=O)c2ccc(Cl)c([N+](=O)[O-])c2)c(C)c1,"35.5 µM [falling, single point]","35.5 µM [falling, single point]"
CCc1ccc(-c2[nH]c3c(c2-c2c(-n4cccc4)n(C)c(=O)[nH]c2=O)c(=O)[nH]c(=O)n3C)cc1,"2.82 µM [falling, partial curve]","3.98 µM [falling, partial curve, poor fit]"
C=CCc1ccc(OCC(O)CN2CCC(Cc3ccccc3)CC2)c(OC)c1 (stereo not given),–,"11.2 µM [rising, partial curve, poor fit]"
O=C(Nc1ccccc1)c1ccc(F)c(S(=O)(=O)N2CCOCC2)c1,–,"14.1 µM [rising, partial curve, poor fit]"
O=C1NC(=O)C(c2ccccc2[N+](=O)[O-])=C1Nc1ccc(O)c(Cl)c1,"5.62 µM [falling, partial curve, poor fit]","0.355 µM [rising, full curve]"
CCn1c(SCC(=O)Nc2cccc(F)c2)nc2c(c1=O)SC(C)C2 (stereo not given),–,"14.1 µM [rising, partial curve]"
O=C(CSc1nc2ncccc2[nH]1)c1cccc([N+](=O)[O-])c1,–,"2.82 µM [rising, partial curve, poor fit]"
COc1ccc(OC)c(-c2cc(C(=O)NCCCn3ccnc3)no2)c1,–,"2.24 µM [rising, partial curve, poor fit]"
O=C(c1cc(-c2ccncc2)nc2ccc(Br)cc12)N1CCN(Cc2ccc3c(c2)OCO3)CC1,"35.5 µM [falling, single point]",–
Cn1c(=O)n(C)c2cc(NS(=O)(=O)c3ccc4c(c3)CCCC4)ccc21,–,"3.16 µM [rising, single point]"
COc1ccccc1NC(=O)c1nnn(Cc2ccccc2)c1NC(=O)C(F)(F)F,"11.2 µM [rising, single point]",–
COC(=O)N/N=C/c1cccc(OCCSc2ccc(Cl)cc2)c1,"15.8 µM [rising, partial curve]","25.1 µM [rising, partial curve]"
O=S(=O)(NCCc1csc(-c2ccc(F)cc2)n1)c1ccc(F)cc1F,–,"11.2 µM [rising, partial curve, poor fit]"
Cc1ccnc(NC(=S)NC(=O)/C=C/c2ccco2)c1,–,"10 µM [rising, partial curve, poor fit]"
COC(=O)c1c(NC(=O)COC(=O)Cn2cnc3ccccc32)sc(C)c1C,"22.4 µM [rising, single point]","35.5 µM [rising, single point]"
COC(=O)/C(=N/Nc1ccccc1)N1CCCc2ccccc21,"11.2 µM [rising, single point]","10 µM [rising, single point]"
COC(=O)c1cc(NC(=O)Nc2cccc(Cl)c2)ccc1Cl,"15.8 µM [falling, single point]","35.5 µM [falling, single point]"
O=C(CSc1ncnc2nc[nH]c12)c1ccccc1,–,"25.1 µM [falling, single point]"
CS(=O)(=O)N(Cc1ccc(Cl)cc1)c1ccc(C(=O)NCCSCc2ccco2)cc1,"15.8 µM [rising, single point]","14.1 µM [rising, single point]"
CC1C=CCC2C(=O)N(c3ccc(Cl)cc3O)C(=O)C12 (stereo not given),"0.0501 µM [falling, partial curve, poor fit]","0.158 µM [falling, full curve, poor fit]"
CC(C)CN(C(=O)c1ccco1)c1nc2ccccc2s1,"14.1 µM [rising, single point]",–
O=C(COC(=O)C12CC3CC(CC(O)(C3)C1)C2)Nc1ccccc1OC(F)F,–,"17.8 µM [rising, single point]"

# 3 entries picked at random from those above, as already listed:
Structure (SMILES),AC50 [1],AC50 [2]
Cn1c(=O)n(C)c2cc(NS(=O)(=O)c3ccc4c(c3)CCCC4)ccc21,–,"3.16 µM [rising, single point]"
O=C1NC(=O)C(c2ccccc2[N+](=O)[O-])=C1Nc1ccc(O)c(Cl)c1,"5.62 µM [falling, partial curve, poor fit]","0.355 µM [rising, full curve]"
CS(=O)(=O)N1N=C(c2ccccc2)CC1c1ccc2c(c1)OCO2 (stereo not given),–,"20 µM [rising, single point]"

# Remaining list, next part.

Structure (SMILES),AC50 [1],AC50 [2]
COc1ccc(CCNc2nnc(Sc3nnnn3-c3ccccc3)s2)cc1OC,–,"5.01 µM [rising, single point]"
COCCN1C=C2C(=O)C(C)(OC(=O)C3CCCC3)C(=O)C(c3ccccc3)=C2C=C1CCCC(=O)OC (stereo not given),"0.0224 µM [falling, full curve]","0.02 µM [falling, full curve, poor fit]"
CCn1ncc(C2=NOC(C(=O)Nc3cccc(C(C)=O)c3)C2)c1C (stereo not given),"4.47 µM [rising, partial curve]","10 µM [rising, partial curve]"
Cc1ccc(NC(=O)C(C)N2C(=O)c3ccccc3C2=O)cc1 (stereo not given),–,"3.55 µM [rising, partial curve]"
N#C/C(=C\c1ccc(O)c(O)c1)C(=O)Nc1ccccc1,"10 µM [falling, partial curve]","7.94 µM [falling, partial curve]"
O=[N+]([O-])c1ccc(Nc2nc(NCCO)nc(N3CCCC3)n2)cc1,–,"11.2 µM [rising, partial curve]"
COc1ccc2[nH]cc(CCNC(=S)NC3CCCC3)c2c1,"0.708 µM [rising, partial curve]","5.01 µM [rising, partial curve]"
CCOC(=O)c1cc2cc3ccccc3cc2[nH]1,–,"0.0562 µM [falling, full curve]"
Cc1cccc(Cc2c(C)nc3c(C(=O)NCc4ccco4)cnn3c2C)c1,"11.2 µM [rising, partial curve]","11.2 µM [rising, partial curve]"
NC(=O)CSc1nc(C2CC2)nc2sc3c(c12)CCCC3,–,"0.00316 µM [falling, full curve, poor fit]"
CC1(c2ccc([N+](=O)[O-])c(CS(=O)(=O)c3ccccc3)c2)OCCO1,"1.26 µM [rising, partial curve, poor fit]",–
COc1ccc(CC(=O)Nc2ccc(-c3nc4ccccc4s3)cc2Cl)cc1,–,"12.6 µM [falling, partial curve, poor fit]"
O=c1c2ccccc2nc(COc2ccccc2)n1/N=C/c1c[nH]c2ccccc12,–,"15.8 µM [rising, single point]"
COC(=O)[C@@]1(Cc2ccc(F)cc2)[C@H]2c3cc(C(=O)N(C)C)n(Cc4ccc(OC)c(OC)c4)c3C[C@H]2CN1C(=O)c1ccccc1,"10 µM [rising, single point]","14.1 µM [rising, single point]"
O=C(Oc1ccc(Br)cc1C(=S)N1CCCC1)c1ccccc1F,"5.01 µM [rising, full curve, poor fit]",–
COc1cc(C(=O)Sc2ccc(C)cc2)cc(OC)c1OC,"28.2 µM [falling, single point]","35.5 µM [falling, single point]"
CCCN(CCC)c1nn2c(=O)c(C(=O)NCc3cccc(OC)c3)cnc2s1,–,"0.0708 µM [falling, full curve, poor fit]"
CCOC(=O)c1c(C)[nH]c(=S)c(C#N)c1-c1ccc(Cl)cc1,–,"35.5 µM [rising, single point]"
Cc1ccc(NC(=O)C2(NC(=O)c3ccccn3)CCCCC2)cc1Br,–,"10 µM [rising, partial curve, poor fit]"
COc1ccc(CNC(=O)C2CCN(C(=O)[C@@H](CC(C)C)NC(=O)OC(C)(C)C)CC2)cc1,–,"3.98 µM [falling, single point]"
CCOc1cccc(-c2nnc3sc(C4CCCCC4)nn23)c1,"10 µM [rising, partial curve, poor fit]","17.8 µM [rising, single point]"
Cc1ccc(-c2noc(CCC(=O)Nc3ccccc3C)n2)cc1,"3.98 µM [rising, full curve, poor fit]","8.91 µM [rising, partial curve]"
CCOC(=O)c1sc(Nc2nc3c(OC)cccc3s2)cc1C,"25.1 µM [falling, single point]",–
COc1ccc(CN(CCC(c2ccc(F)cc2)C2CCOC(C)(C)C2)C(=O)c2ccco2)cc1 (stereo not given),"12.6 µM [falling, partial curve]","12.6 µM [falling, partial curve]"
Cc1cc2nc(C3CCN(Cc4nnnn4Cc4ccccc4)CC3)[nH]c2cc1C,"15.8 µM [falling, single point]",–
Cc1cc(N2CCN(C(=O)c3ccco3)CC2)n2ncc(-c3ccccc3)c2n1,–,"15.8 µM [rising, partial curve]"
Cc1sc(-c2cc3ccccc3oc2=O)nc1-c1ccc(Cl)cc1,–,"35.5 µM [rising, single point]"
